At least one peptide structure holds a part that was inferred or is arguable (an end, a ring closure or a residue).
Target: T1, calcitonin receptors (CTR) (Homo sapiens, UniProt P30988)
T1 construct: expressed in transfected cells; host or cells: cAMP Hunter HEK293-CT-R Gs cell line (HEK293, stably transfected)
T1 sequence (P30988 25-474): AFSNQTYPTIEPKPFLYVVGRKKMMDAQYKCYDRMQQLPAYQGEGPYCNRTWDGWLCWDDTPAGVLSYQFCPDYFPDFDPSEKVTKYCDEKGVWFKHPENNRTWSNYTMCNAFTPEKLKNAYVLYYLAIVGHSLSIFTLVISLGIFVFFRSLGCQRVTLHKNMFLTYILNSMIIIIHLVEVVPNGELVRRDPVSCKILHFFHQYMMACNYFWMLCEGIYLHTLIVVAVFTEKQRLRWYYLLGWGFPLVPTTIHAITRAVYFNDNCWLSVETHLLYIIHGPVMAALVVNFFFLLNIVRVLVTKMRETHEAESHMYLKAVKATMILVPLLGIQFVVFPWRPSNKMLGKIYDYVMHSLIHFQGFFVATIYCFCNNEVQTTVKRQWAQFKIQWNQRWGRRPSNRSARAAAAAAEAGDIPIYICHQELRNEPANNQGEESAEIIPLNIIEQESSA
Assay: cAMP determination (HTRF, cAMP Dynamic 2 Kit) in cAMP Hunter HEK293-CT-R Gs cell line
Type: cell-based
Conditions: relative to Salmon Calcitonin = 100.0
Source text: Upon activation by a ligand, Gas-coupled GPCRs can upregulate intracellular cAMP level, and cAMP, as a second messenger, can mediate a series of cellular responses. The cAMP Hunter HEK293-CT-R Gs cell line, which overexpresses Gas-coupled calcitonin receptors (CTR), was used. The binding of calcitonin (or an analog thereof) to the overexpressed CTR upregulates intracellular cAMP level. The amount of intracellular cAMP produced after activation by the calcitonin (or an analog thereof) was detected using a cAMP Dynamic 2 Kit to evaluate the biological activity of the calcitonin (or an analog thereof). HEK293 cell line stably expressing CT-R was used. Stably transfected cells were stimulated with various concentrations of agonists. The time-resolved fluorescence resonance energy signal from the cells after stimulation with different doses was measured using HTRF technology, from which the biological activity of the agonist was subsequently calculated.

With CC(C)C[C@H](NC(=O)[C@H](CCCCN)NC(=O)CNC(=O)[C@H](CC(C)C)NC(=O)[C@@H](NC(=O)[C@@H]1CSSC[C@H](N)C(=O)N[C@@H](CO)C(=O)N[C@@H](CC(N)=O)C(=O)N[C@@H](CC(C)C)C(=O)N[C@@H](CO)C(=O)N[C@@H]([C@@H](C)O)C(=O)N1)C(C)C)C(=O)N[C@@H](CO)C(=O)N[C@@H](CCC(N)=O)C(=O)N[C@@H](CCC(=O)O)C(=O)N[C@@H](CC(C)C)C(=O)N[C@@H](Cc1c[nH]cn1)C(=O)N[C@@H](CCCCN)C(=O)N[C@@H](CC(C)C)C(=O)N[C@@H](CCC(N)=O)C(=O)N[C@H](C(=O)N[C@@H](Cc1ccc(O)cc1)C(=O)N1CCC[C@H]1C(=O)N[C@@H](CCCNC(=N)N)C(=O)N[C@H](C(=O)N[C@@H](CC(N)=O)C(=O)N[C@H](C(=O)NCC(=O)N[C@@H](CO)C(=O)NCC(=O)N[C@H](C(=O)N1CCC[C@H]1C(N)=O)[C@@H](C)O)[C@@H](C)O)[C@@H](C)O)[C@@H](C)O [Salmon Calcitonin, reference compound] the “Relative Activity%” value was 100.0%.

— EP4691482A1, “LONG-ACTING CALCITONIN ANALOG” (Chengdu Aoda Biotechnology Co., Ltd., priority 2023, dated 2024)
